Changes are numbered by the printed parent chain. Results are given in words; binding and its absence hold for the method and conditions named. Some results given as binding are weak or reduced against the parent protein; the word gives no strength. One block for each binder: values may come before it.
Experiments:
[1] = target: T1, human recombinant Endosialin (human, UniProt Q9HCU0 18-687, limits assumed); assay: ELISA, plate coated with recombinant Endosialin
T1 construct: Coated on ELISA plates at 1 ug/ml; also called TEM-1; TEM1
T1 sequence: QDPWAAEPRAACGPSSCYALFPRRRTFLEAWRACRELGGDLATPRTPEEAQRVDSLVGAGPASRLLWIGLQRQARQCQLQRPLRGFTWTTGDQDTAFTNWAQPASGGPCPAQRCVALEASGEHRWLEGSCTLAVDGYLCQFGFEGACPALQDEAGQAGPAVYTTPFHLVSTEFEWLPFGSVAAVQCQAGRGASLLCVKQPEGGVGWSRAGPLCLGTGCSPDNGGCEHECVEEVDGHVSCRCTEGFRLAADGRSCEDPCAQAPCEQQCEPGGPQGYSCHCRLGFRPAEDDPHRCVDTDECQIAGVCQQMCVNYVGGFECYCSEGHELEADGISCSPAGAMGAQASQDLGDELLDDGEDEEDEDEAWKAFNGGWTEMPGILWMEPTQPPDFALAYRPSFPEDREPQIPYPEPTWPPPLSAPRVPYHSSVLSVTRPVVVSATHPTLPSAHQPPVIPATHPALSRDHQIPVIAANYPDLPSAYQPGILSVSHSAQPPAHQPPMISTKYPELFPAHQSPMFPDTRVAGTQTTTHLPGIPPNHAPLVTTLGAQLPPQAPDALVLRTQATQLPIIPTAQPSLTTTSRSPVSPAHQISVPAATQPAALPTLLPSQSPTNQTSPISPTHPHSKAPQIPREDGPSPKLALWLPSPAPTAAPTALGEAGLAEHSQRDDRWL
Procedure: Materials and Methods: (FIG. 2). (A) Ninety-six well plates (NUNC Maxisorp modules) were pre-coated with human recombinant Endosialin (1 μg/ml) overnight at 4° C. After blocking with 1% BSA in PBS+0.1% Tween-20 for 1 hour at 4° C., mMP-E-8.3, cMP-E-8.3, hMP-E-8.3 and a commercial antibody against Endosialin at the indicated concentration were added and incubated for 2 hours at room temperature. After several washes with PBS+0.1% Tween-20, a goat anti-mouse or anti-human IgG-HRP solution was added to each well and incubated for 1 hour at 37° C. After washes, stabilized chromogen was added to each well for at least 10 minutes in the dark, then the reaction was stopped with the addition of 1 N H₂SO4 and the absorbance was read at 450 nm with an ELISA reader. (B) Sjsa-1 human osteosarcoma cell line were stained with 1 μg/ml of mMP-E-8.3 antibody, or cMP-E-8.3 and hMP-E-8.3 at 100 ng/ml (blue line) and 1 ug/ml (green line) or with 1 μg/ml of a commercial antibody against Endosialin on ice for 30 minutes after incubation with a Goat anti-mouse/anti-human Alexa-488 conjugated antibodies for 1 hour on ice, cells were analyzed by flow cytometer (FACS). (C) Sjsa-1 human osteosarcoma cells were grown on glass coverslips for 24 hours. […]

[2] = target: T2, human Endosialin expressed by Sjsa-1 cells (human) (UniProt Q9HCU0); assay: flow cytometry on Sjsa-1 cells
T2 sequence: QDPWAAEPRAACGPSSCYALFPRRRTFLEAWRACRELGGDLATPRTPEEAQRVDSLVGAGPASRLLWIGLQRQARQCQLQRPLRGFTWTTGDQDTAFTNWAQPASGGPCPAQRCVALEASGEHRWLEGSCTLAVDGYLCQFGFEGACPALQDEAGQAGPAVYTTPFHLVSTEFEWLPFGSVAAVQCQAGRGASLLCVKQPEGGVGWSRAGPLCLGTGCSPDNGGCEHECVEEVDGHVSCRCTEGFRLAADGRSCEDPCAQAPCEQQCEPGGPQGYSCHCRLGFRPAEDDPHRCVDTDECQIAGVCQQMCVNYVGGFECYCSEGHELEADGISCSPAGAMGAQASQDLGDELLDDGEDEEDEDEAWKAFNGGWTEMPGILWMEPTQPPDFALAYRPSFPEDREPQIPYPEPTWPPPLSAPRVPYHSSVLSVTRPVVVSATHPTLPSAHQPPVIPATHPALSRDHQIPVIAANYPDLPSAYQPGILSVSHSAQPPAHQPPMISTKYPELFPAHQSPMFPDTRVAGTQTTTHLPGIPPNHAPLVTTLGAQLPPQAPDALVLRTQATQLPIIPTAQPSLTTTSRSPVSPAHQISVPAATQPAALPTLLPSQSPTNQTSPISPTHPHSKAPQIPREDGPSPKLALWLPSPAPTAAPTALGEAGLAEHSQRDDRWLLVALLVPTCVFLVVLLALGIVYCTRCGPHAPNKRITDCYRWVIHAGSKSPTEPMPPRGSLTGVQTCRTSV

[3] = target: T2, human Endosialin expressed by Sjsa-1 cells (human); assay: flow cytometry and confocal microscopy on Sjsa-1 cells
[4] = target: T2, human Endosialin expressed by Sjsa-1 cells (human); assay: flow cytometry and confocal microscopy on Sjsa-1 Endosialin positive cells, 10 ug/ml
[5] = target: T2, human Endosialin expressed by Sjsa-1 cells (human); assay: confocal microscopy on fixed Sjsa-1 cells

binding [1]: binds
binding [2]: binds
B1: hMP-E-8.3 (antibody, V domains shown)
VH: QVQLQESGPGLVKPSETLSLTCTVSGFSLTGYGVNWIRQPPGKGLEWIGMIWVDGSTDYNSALKSRVTISVDTSKNQFSLKLSSVTAADTAVYYCARGGYGAMDYWGQGTLVTVSS
VL: DIQMTQSPSTLSASVGDRVTITCHASQNINVWLTWYQQKPGKAPKLLIYKASNLHTGVPSRFSGSGSGTEFTLTISSLQPDDFATYYCQQGQSYPWTFGGGTKLEIK

binding [1]: binds
binding [3]: binds
binding [4]: binds
binding [5]: binds
B2: mMP-E-8.3 (antibody, V domains shown)
VH: QVQLQESGPGLVAPSQSLSITCTVSGFSLTGYGVNWVRQPPEKGLEWLGMIWVDGSTDYNSALKSRLNISKDKSKSQVFLKMNSLQTDDTARYYCARGGYGAMDYWGQGTSVTVSS
VL: B1 VL with T5N, T10S, V15L, R18T, V19I, K42N, A43I, E70G, D81E, F83I
